Results published in the supplement of paper PMC12819154, “High-throughput peptide-centric local stability assay extends protein–ligand identification to membrane proteins, tissues and bacteria” (Nature Structural & Molecular Biology, 2025).
The list shows a part of the results. Most entries show no effect beyond the scatter of the controls.

Sequences of proteins named here, by UniProt entry; tags and fusion partners are left off. A change or cut given only in a name is not applied to a line headed by its entry.
UniProt Q9HCI6: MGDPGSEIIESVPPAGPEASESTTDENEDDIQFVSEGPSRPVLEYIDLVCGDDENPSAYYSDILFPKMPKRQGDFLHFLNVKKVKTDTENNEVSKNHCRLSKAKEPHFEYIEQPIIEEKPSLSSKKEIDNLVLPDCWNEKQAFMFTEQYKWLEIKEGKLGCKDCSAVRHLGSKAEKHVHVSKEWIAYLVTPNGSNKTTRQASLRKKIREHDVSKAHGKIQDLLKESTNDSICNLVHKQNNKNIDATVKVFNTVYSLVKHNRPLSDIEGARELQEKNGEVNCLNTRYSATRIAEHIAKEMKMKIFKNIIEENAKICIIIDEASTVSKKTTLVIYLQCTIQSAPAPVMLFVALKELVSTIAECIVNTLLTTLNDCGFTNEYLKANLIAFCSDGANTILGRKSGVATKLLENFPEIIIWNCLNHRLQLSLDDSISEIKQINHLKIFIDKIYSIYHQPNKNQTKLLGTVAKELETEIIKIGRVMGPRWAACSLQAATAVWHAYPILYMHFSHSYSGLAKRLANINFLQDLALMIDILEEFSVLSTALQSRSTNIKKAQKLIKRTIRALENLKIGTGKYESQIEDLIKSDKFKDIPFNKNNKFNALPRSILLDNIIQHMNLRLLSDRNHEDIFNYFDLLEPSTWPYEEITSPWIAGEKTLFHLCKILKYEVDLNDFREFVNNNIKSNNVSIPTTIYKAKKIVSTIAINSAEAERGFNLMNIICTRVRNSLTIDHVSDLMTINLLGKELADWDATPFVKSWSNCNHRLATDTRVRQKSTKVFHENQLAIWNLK
UniProt Q9HCE3: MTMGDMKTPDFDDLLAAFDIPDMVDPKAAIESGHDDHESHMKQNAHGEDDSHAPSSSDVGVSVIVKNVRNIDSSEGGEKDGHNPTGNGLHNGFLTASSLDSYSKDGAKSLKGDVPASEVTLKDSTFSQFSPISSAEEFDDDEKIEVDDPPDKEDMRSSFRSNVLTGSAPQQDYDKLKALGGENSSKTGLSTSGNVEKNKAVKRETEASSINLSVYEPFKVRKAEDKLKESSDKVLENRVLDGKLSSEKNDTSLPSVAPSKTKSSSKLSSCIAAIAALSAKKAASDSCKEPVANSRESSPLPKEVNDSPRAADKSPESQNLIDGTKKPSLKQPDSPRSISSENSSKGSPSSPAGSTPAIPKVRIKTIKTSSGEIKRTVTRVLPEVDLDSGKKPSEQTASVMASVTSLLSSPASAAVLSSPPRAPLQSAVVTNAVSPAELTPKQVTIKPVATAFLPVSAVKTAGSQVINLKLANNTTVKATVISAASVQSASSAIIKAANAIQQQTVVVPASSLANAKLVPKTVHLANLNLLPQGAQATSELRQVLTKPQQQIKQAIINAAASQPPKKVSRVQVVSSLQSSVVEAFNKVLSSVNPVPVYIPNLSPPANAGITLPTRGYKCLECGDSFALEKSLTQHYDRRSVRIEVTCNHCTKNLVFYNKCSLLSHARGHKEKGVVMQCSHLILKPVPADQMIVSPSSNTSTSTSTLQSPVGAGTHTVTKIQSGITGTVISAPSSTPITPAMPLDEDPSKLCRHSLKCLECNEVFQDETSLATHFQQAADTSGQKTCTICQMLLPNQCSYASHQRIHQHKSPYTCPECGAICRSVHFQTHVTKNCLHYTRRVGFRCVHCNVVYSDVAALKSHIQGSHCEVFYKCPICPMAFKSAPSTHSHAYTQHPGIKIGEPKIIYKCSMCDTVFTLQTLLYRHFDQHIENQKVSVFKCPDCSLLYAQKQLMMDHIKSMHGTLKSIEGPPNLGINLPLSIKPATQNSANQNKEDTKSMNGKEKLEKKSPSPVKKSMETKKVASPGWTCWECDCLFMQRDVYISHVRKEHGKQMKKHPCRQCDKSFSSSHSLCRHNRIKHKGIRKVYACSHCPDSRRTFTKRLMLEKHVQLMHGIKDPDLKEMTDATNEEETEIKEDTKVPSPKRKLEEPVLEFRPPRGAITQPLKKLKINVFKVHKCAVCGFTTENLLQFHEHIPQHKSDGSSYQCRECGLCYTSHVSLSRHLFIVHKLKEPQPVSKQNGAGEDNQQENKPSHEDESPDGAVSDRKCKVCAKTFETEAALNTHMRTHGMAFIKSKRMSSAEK
UniProt Q9NP50: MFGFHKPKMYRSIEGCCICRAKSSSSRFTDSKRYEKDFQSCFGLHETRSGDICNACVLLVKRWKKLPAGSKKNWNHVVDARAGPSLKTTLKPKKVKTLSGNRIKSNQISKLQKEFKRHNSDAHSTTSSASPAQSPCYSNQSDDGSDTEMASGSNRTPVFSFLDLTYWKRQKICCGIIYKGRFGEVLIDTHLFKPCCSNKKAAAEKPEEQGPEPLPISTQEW
UniProt Q9HD34: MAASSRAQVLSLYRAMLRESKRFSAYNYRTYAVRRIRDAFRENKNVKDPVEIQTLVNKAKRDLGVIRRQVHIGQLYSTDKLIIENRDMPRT
UniProt Q9HCE0: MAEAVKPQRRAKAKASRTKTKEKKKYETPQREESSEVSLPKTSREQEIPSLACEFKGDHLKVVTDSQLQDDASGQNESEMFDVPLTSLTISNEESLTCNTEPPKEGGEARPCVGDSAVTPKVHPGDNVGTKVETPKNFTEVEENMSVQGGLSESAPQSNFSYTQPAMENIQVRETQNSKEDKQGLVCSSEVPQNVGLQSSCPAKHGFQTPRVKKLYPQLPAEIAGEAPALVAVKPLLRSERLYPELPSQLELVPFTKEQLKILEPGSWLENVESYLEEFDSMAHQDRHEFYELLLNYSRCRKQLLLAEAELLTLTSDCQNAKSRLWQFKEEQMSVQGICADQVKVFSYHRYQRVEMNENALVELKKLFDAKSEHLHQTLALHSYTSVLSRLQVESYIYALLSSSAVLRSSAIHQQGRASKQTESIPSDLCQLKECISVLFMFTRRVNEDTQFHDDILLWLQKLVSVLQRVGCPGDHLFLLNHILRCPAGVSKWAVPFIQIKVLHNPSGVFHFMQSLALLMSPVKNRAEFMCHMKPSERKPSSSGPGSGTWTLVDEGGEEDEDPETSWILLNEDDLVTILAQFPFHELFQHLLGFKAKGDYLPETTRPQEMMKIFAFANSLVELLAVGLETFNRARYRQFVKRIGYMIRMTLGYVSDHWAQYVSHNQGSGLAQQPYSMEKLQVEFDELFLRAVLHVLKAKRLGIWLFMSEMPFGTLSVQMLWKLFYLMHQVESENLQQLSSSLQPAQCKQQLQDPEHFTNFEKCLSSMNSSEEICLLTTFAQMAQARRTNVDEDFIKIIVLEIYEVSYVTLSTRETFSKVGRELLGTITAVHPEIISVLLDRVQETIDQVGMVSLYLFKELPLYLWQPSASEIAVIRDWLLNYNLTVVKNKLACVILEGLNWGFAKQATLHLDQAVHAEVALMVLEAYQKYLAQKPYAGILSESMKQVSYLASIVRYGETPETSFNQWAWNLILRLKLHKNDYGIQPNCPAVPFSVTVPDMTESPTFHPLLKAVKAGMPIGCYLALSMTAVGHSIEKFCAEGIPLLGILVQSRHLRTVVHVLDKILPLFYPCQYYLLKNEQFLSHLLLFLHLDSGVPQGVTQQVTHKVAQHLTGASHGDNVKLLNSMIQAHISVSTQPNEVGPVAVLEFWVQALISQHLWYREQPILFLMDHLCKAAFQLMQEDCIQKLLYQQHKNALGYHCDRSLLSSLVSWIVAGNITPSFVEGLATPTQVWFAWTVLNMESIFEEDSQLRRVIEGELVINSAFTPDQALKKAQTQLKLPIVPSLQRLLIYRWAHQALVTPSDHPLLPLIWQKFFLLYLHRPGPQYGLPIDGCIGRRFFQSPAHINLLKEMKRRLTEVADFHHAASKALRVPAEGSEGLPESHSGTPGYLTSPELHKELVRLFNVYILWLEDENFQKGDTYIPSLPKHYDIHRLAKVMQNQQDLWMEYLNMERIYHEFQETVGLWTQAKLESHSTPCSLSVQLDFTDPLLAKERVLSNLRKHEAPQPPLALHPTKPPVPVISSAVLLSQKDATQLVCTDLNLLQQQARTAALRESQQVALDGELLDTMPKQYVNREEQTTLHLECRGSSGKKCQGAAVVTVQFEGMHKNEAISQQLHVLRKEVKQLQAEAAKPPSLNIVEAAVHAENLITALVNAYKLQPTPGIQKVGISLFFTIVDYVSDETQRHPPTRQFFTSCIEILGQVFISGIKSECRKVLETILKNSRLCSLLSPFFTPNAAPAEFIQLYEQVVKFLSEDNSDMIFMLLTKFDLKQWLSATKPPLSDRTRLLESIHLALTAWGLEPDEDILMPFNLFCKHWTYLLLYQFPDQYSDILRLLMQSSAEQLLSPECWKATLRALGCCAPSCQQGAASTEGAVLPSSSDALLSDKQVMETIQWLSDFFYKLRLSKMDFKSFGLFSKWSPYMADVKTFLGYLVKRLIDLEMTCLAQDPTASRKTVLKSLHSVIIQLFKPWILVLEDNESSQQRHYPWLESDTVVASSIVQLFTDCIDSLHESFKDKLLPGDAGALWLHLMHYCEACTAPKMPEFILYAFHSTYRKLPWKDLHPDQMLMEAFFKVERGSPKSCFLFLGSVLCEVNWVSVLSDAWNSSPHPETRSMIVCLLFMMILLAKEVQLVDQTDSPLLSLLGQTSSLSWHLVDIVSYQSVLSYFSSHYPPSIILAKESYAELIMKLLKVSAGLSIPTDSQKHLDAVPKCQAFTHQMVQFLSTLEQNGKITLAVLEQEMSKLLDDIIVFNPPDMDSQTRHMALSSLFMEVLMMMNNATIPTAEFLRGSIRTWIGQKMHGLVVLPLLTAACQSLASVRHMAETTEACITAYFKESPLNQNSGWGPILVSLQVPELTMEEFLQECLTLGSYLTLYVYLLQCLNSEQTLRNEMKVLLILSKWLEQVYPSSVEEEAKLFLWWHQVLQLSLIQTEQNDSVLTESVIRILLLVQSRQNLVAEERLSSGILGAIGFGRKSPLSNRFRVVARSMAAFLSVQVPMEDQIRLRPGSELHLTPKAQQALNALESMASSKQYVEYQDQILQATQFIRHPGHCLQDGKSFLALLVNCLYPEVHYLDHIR
UniProt Q9H9Y4: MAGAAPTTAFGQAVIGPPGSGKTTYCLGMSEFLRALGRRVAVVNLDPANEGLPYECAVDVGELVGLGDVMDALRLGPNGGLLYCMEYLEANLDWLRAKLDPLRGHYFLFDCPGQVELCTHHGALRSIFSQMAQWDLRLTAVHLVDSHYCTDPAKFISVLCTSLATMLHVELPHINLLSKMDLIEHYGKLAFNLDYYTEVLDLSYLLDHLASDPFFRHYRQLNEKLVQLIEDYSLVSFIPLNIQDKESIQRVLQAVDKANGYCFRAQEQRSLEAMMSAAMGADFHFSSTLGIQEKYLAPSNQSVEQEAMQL
UniProt Q9H8W4: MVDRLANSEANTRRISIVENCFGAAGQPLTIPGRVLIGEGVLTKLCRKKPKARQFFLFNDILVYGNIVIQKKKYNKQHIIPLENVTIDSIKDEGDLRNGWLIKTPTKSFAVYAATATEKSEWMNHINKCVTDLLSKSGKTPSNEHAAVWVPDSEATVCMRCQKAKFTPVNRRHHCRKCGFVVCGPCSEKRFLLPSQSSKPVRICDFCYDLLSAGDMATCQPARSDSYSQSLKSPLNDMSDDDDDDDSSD
UniProt Q9H6Z4: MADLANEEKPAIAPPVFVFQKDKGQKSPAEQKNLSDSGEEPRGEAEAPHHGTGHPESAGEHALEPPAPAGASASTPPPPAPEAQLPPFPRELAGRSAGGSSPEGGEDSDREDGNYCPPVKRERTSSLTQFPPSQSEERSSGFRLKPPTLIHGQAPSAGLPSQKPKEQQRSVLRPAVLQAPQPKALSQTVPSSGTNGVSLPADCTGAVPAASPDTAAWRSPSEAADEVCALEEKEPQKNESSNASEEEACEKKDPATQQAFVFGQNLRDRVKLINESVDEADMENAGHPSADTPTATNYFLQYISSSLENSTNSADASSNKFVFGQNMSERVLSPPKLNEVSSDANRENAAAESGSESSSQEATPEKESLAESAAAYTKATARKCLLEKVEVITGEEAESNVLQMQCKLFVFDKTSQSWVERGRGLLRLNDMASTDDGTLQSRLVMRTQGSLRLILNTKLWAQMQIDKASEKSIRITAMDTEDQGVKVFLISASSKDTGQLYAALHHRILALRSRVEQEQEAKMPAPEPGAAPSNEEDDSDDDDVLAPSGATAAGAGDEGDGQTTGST
UniProt Q9NQC8: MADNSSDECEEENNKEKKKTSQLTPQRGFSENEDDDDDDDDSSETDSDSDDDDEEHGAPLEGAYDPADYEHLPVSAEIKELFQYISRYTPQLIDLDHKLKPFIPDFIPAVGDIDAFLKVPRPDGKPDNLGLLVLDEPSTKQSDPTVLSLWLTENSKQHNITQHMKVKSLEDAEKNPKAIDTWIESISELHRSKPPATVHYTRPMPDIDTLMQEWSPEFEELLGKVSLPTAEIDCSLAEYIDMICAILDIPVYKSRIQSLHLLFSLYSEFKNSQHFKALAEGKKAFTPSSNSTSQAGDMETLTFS
UniProt Q9HCU8: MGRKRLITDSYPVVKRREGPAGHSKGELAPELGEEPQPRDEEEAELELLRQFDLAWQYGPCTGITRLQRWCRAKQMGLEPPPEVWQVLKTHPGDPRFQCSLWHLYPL

compound: CN[C@@H]1C[C@H]2O[C@@](C)([C@@H]1OC)n1c3ccccc3c3c4c(c5c6ccccc6n2c5c31)C(=O)NC4 [staurosporine]; experiment: log2 fold change of tryptic peptide abundance, ligand vs vehicle (limited proteolysis) (log2 ratio); higher = more trypsin-susceptible (destabilized); conditions: ligand concentration: 20 uM; sample: K562 cleared lysate; digestion: 4 min, 22 C (HT-PELSA RT4min, Orbitrap Astral)

Target	log2 fold change
KIAA1586 (peptide sequence: IGTGKYESQIEDLIK, peptide start residue: 569) (UniProt Q9HCI6)	0.331
CHMP1A (peptide sequence: VYAENAIR, peptide start residue: 47) (UniProt Q9HD42)	-0.0901
UniProt Q9HCE3 (peptide sequence: TSSGEIKR, peptide start residue: 382)	-0.138
UniProt Q9H4K7 (peptide sequence: FFLANNNR, peptide start residue: 194)	0.187
EPB41L1 (peptide sequence: KKIEPEAVLQTR, peptide start residue: 709) (UniProt Q9H4G0)	-0.314
UniProt Q9NP50 (peptide sequence: IKSNQISK, peptide start residue: 103)	0.421
PRKRIP1 (peptide sequence: QDYMDAMAEK, peptide start residue: 93) (UniProt Q9H875)	-0.322
NEK6 (peptide sequence: HPNTLSFR, peptide start residue: 32) (UniProt Q9HC98)	0.435
CACYBP (peptide sequence: KIYEDGDDDMKR, peptide start residue: 197) (UniProt Q9HB71)	-0.115
LYRM4 (peptide sequence: QVHIGQLYSTDKLIIENR, peptide start residue: 69) (UniProt Q9HD34)	-0.441
UniProt Q9HCG1 (peptide sequence: MYECNQVEK, peptide start residue: 201)	-0.3
UniProt Q9HCE0 (peptide sequence: VHPGDNVGTKVETPK, peptide start residue: 122)	-0.252
VEZT (peptide sequence: NKDNSSNEVFPQGAEER, peptide start residue: 673) (UniProt Q9HBM0)	0.0717
MRPL44 (peptide sequence: NLVDFLTGEEVVCHVAR, peptide start residue: 155) (UniProt Q9H9J2)	0.315
MRPL40 (peptide sequence: LHAEAIKR, peptide start residue: 157) (UniProt Q9NQ50)	0.533
PIDD1 (peptide sequence: LLVLHSNLLASVPADLAR, peptide start residue: 244) (UniProt Q9HB75)	0.332
UniProt Q9HAU4 (peptide sequence: THLHTPPDLPEGYEQR, peptide start residue: 245)	-0.272
SFXN1 (peptide sequence: QAITQVVVSR, peptide start residue: 224) (UniProt Q9H9B4)	0.154
EPS8L2 (peptide sequence: IVENLGILTGPQLFSLNKEELKK, peptide start residue: 646) (UniProt Q9H6S3)	-0.222

Reprinted from above (two entries):
Target	log2 fold change
EPB41L1 (peptide sequence: KKIEPEAVLQTR, peptide start residue: 709) (UniProt Q9H4G0)	-0.314
UniProt Q9NP50 (peptide sequence: IKSNQISK, peptide start residue: 103)	0.421

Additional entries.

Target	log2 fold change
GNB4 (peptide sequence: IYAMHWGYDSR, peptide start residue: 58) (UniProt Q9HAV0)	-0.512
SMARCAD1 (peptide sequence: KMANHPLLHR, peptide start residue: 780) (UniProt Q9H4L7)	0.93
ZFYVE1 (peptide sequence: FPEAFSSIHYK, peptide start residue: 350) (UniProt Q9HBF4)	-0.676
EML4 (peptide sequence: SHNSWENSDDSR, peptide start residue: 181) (UniProt Q9HC35)	-0.243
GPN2 (peptide sequence: LTAVHLVDSHYCTDPAK, peptide start residue: 138) (UniProt Q9H9Y4)	0.171
XPO5 (peptide sequence: MGFPSKTDSPSCEYSR, peptide start residue: 408) (UniProt Q9HAV4)	0.32
PLEKHF2 (peptide sequence: QHIIPLENVTIDSIKDEGDLR, peptide start residue: 77) (UniProt Q9H8W4)	-0.29
RGCC (peptide sequence: HFHYEEHLER, peptide start residue: 50) (UniProt Q9H4X1)	-0.271
CCDC134 (peptide sequence: IDRTEFIPSTDPFQK, peptide start residue: 184) (UniProt Q9H6E4)	-0.134
RANBP3 (peptide sequence: DTGQLYAALHHR, peptide start residue: 496) (UniProt Q9H6Z4)	0.544
UniProt Q9H611 (peptide sequence: LAAAPGPGPASAR, peptide start residue: 124)	-0.0232
IFT46 (peptide sequence: AIDTWIESISELHR, peptide start residue: 178) (UniProt Q9NQC8)	0.255
ISG20L2 (peptide sequence: SGHSSVEDAQATMELYK, peptide start residue: 320) (UniProt Q9H9L3)	0.37
POLD4 (peptide sequence: LITDSYPVVK, peptide start residue: 6) (UniProt Q9HCU8)	-0.0319
ANKRA2 (peptide sequence: AECNIHTSPSPGIQVR, peptide start residue: 97) (UniProt Q9H9E1)	-0.122
MSL2 (peptide sequence: SLDEAIDMR, peptide start residue: 566) (UniProt Q9HCI7)	-0.214
SCAF1 (peptide sequence: IGDRDPIPLPVPSLLPR, peptide start residue: 134) (UniProt Q9H7N4)	-0.37
SP140L (peptide sequence: QGEVPESPEAR, peptide start residue: 174) (UniProt Q9H930)	0.3
